PubChem BioAssay AID1224828 | NIAID – 2016
Screen: 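Knock-downs that increase or decrease LPS-induced p65 nuclear translocation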 (primary screen). Cells: mouse RAW264.7 G9 macrophage reporter cells (GFP-p65, Tnf promoter-mCherry). Reagents: siRNA pool against mouse genes, 100 nM. Timing: 2 days siRNA transfection, then 40 min LPS before fixation. Conditions: LPS (Salmonella minnesota R595) at 10 ng/ml. Read-out: 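Imaged p65 nuclear translocation ratio, normalised to the plate median, converted to robust z-scores and averaged across two replicates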. Reading the numbers: p65 translocation robust z-score: higher = more nuclear NF-kappaB p65 after LPS than the plate median; nuclear/cytoplasmic p65 ratio: higher = more nuclear NF-kappaB p65. Call rule: 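Active if robust z is above 3.3 (negative regulators) or below -1.56, the Tlr4 control median (positive regulators); activity score 50 or more; control wells not called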. Meaning of the calls: active = hit (p65 shift raised or lowered); inactive = no clear change.
The whole screen tested about 17,000 reagents; this is an unselected part. 762 of all reagents (4.5%) count as active. 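Active calls include both raised and lowered p65 entry, mostly lowered; wells with fewer than 50 cells lack a z-score.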 Raw values are not corrected between plates. A number with no mark means an inactive call. Reagents against one gene are numbered here.

gene symbol	reagent	p65 translocation robust z-score	nuclear/cytoplasmic p65 ratio, rep 1	nuclear/cytoplasmic p65 ratio, rep 2	low cell count flag
Bltp3b (bridge-like lipid transfer protein family member 3B)	1	1.49	1.66	1.38	enough cells to score
Apoc2 (apolipoprotein C2)	1	0.88	1.81	1.56	enough cells to score
Bub1b (BUB1B, mitotic checkpoint serine/threonine kinase)	1	-1.5	1.41	1.23	enough cells to score
Gopc (golgi associated PDZ and coiled-coil motif containing)	1	-0.37	1.39	1.32	enough cells to score
Or2a5 (olfactory receptor family 2 subfamily A member 5)	1	-0.15	1.4	1.42	enough cells to score
Ncmap (noncompact myelin associated protein)	1	-0.49	1.22	1.46	enough cells to score
Casq1 (calsequestrin 1)	1	0.06	1.59	1.65	enough cells to score
Lrrc8c (leucine rich repeat containing 8 family, member C)	1		1.2	1.2	fewer than 50 cells per well; well left out of scoring
Rexo2 (RNA exonuclease 2)	1		1.49	1.37	fewer than 50 cells per well; well left out of scoring
Eprs1 (glutamyl-prolyl-tRNA synthetase 1)	1	-1.57 (active)	1.42	1.16	enough cells to score
Setd1a (SET domain containing 1A)	1	-1.36	1.48	1.35	enough cells to score
Setd1a (SET domain containing 1A)	2	-1.34	1.32	1.69	enough cells to score
Cdk12 (cyclin dependent kinase 12)	1	1.72	2.09	1.5	enough cells to score
Tmed11 (transmembrane p24 trafficking protein 11)	1	-0.39	1.34	1.51	enough cells to score
Slco1b2	1		0	0	fewer than 50 cells per well; well left out of scoring
Endod1 (endonuclease domain containing 1)	1		1.4	1.25	fewer than 50 cells per well; well left out of scoring
Tpte (transmembrane phosphatase with tensin homology)	1	1.79	1.79	1.67	enough cells to score
Rhebl1 (Ras homolog enriched in brain like 1)	1		1.59	1.27	fewer than 50 cells per well; well left out of scoring
Dyrk3 (dual-specificity tyrosine phosphorylation regulated kinase 3)	1	-1.08	1.58	1.2	enough cells to score
Rhbdf1 (rhomboid 5 homolog 1)	1	-0.83	1.29	1.13	enough cells to score
Cpt2 (carnitine palmitoyltransferase 2)	1	1.05	1.67	1.47	enough cells to score
Pald1 (phosphatase domain containing, paladin 1)	1	-0.7	1.38	1.3	enough cells to score
Tceal5 (transcription elongation factor A (SII)-like 5)	1	0.7	1.45	1.56	enough cells to score
Gatm	1	-1.72 (active)	1.17	1.19	enough cells to score
Or4c11c (olfactory receptor family 4 subfamily C member 11C)	1	0.72	1.82	1.64	enough cells to score
Hoxc8 (homeobox C8)	1	-1.99 (active)	1.36	1.24	enough cells to score
Gm5082 (predicted gene 5082)	1	1.74	1.64	1.73	enough cells to score
Mylpf (myosin light chain, phosphorylatable, fast skeletal muscle)	1	-0.61	1.71	1.48	enough cells to score
Cct7 (chaperonin containing TCP1 subunit 7)	1	0.18	1.64	1.4	enough cells to score
Kdelr3	1	1.24	1.61	1.57	enough cells to score

Reagents listed above called active, once more:
gene symbol	reagent	p65 translocation robust z-score	nuclear/cytoplasmic p65 ratio, rep 1	nuclear/cytoplasmic p65 ratio, rep 2	low cell count flag
Eprs1 (glutamyl-prolyl-tRNA synthetase 1)	1	-1.57 (active)	1.42	1.16	enough cells to score
Gatm	1	-1.72 (active)	1.17	1.19	enough cells to score
Hoxc8 (homeobox C8)	1	-1.99 (active)	1.36	1.24	enough cells to score

Next records:
gene symbol	reagent	p65 translocation robust z-score	nuclear/cytoplasmic p65 ratio, rep 1	nuclear/cytoplasmic p65 ratio, rep 2	low cell count flag
Smc1b (structural maintenance of chromosomes 1B)	1		1.31	1.12	fewer than 50 cells per well; well left out of scoring
Cstpp1	1	-0.98	1.4	1.32	enough cells to score
Or7g34 (olfactory receptor family 7 subfamily G member 34)	1	0.12	1.43	1.31	enough cells to score
Nsun7 (NOL1/NOP2/Sun domain family, member 7)	1		1.24	1.36	fewer than 50 cells per well; well left out of scoring
Lin37 (lin-37 DREAM MuvB core complex component)	1		1.41	1.2	fewer than 50 cells per well; well left out of scoring
Nup62 (nucleoporin 62)	1	0.34	1.89	1.48	enough cells to score
Chid1 (chitinase domain containing 1)	1	0.29	1.66	1.65	enough cells to score
Phactr4 (phosphatase and actin regulator 4)	1	-1.34	1.27	1.08	enough cells to score
Cldnd1 (claudin domain containing 1)	1	0.54	1.7	1.45	enough cells to score
Csf2ra	1	-1.78 (active)	1.2	1.18	enough cells to score
Tmtc1 (transmembrane and tetratricopeptide repeat containing 1)	1	1.11	1.75	2.02	enough cells to score
Otos (otospiralin)	1	0.04	1.38	1.3	enough cells to score
Pptc7 (PTC7 protein phosphatase homolog)	1	2.2	1.87	2.01	enough cells to score
Zfp9 (zinc finger protein 9)	1	-0.26	1.45	1.16	enough cells to score
Bysl (bystin-like)	1	-0.56	1.4	1.4	enough cells to score
Tns4 (tensin 4)	1		1.35	1.43	fewer than 50 cells per well; well left out of scoring
Eif3c (eukaryotic translation initiation factor 3, subunit C)	1	0.17	1.64	1.64	enough cells to score
Defa29 (defensin, alpha, 29)	1	-0.13	1.49	1.58	enough cells to score
Gmfb (glia maturation factor, beta)	1	0.42	1.71	1.48	enough cells to score
Pou6f1 (POU domain, class 6, transcription factor 1)	1	-0.56	1.37	1.38	enough cells to score
9530019H20Rik (RIKEN cDNA 9530019H20 gene)	1	0.1	1.43	1.57	enough cells to score
Cul1 (cullin 1)	1	-0.73	1.3	1.27	enough cells to score
Rps11 (ribosomal protein S11)	1		1.12	1.06	fewer than 50 cells per well; well left out of scoring
Usp13 (ubiquitin specific peptidase 13 (isopeptidase T-3))	1	0.9	1.78	1.71	enough cells to score
Ugt1a1 (UDP glucuronosyltransferase 1 family, polypeptide A1)	1		1.22	1.08	fewer than 50 cells per well; well left out of scoring
Siae (sialic acid acetylesterase)	1	0.45	1.52	1.26	enough cells to score
Ccl21d (C-C motif chemokine ligand 21D)	1	0.76	1.42	1.47	enough cells to score
Matk (megakaryocyte-associated tyrosine kinase)	1	-0.5	1.49	1.4	enough cells to score
Or52a5 (olfactory receptor family 52 subfamily A member 5)	1	-1.55	1.24	1.09	enough cells to score
